Source: PubChem BioAssay AID328 (DTP/NCI, 2004)
The list does not hold the whole screen: it is rich in T/C values a quarter to a half above the control, in often repeated tests (any T/C) and in doses without a T/C. Further doses and runs are listed elsewhere. T/C: endpoint of the treated group in % of that of the vehicle group. Some doses have a count of surviving animals in place of a T/C: the source files T/C as zero there, which appears to mark a toxic dose or a test without result, not a measured value. Some doses without a T/C left all or most animals alive at the check, yet need not have been tolerated: the source hardly ever lists a survival T/C far under the control, and the zero likely stands for such cases as well. Counts of survivors are from the toxicity check (mostly the fifth day) where no day follows; animals may have died later. Schedule codes are those of the source, taken here to give the interval after Q, in days (D) or hours (H), and the number of doses after X. For survival time, this PubChem deposit counts one and a half times the control or more as active, and values a quarter to a half above the control carry no call in these data; other NCI protocols may use other cut-offs. Some T/C values carry the count of animals alive at the toxicity check (mostly the fifth day); where none is given, no animal had died by that day. Some doses were run more than once; the values are given in rising order.

System: BDF1 mice, P388 leukemia ip, median survival T/C
Assay: NCI In Vivo Anticancer Drug Screen. Data for tumor model P388 Leukemia (intraperitoneal) in B6D2F1 (BDF1) mice
Conditions: T/C endpoint: median survival time, higher T/C = longer survival
Summary of the method: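 Steps: implant the tumour, treat one group with compound and another with vehicle, record survival, then divide treated by control.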

[1] = dose: 50.0 mg/kg/injection, schedule: Q01DX009 (ip), vehicle: saline with Tween-80
[2] = dose: 100.0 mg/kg/injection, schedule: Q01DX009 (ip), vehicle: saline
[3] = dose: 25.0 mg/kg/injection, schedule: Q01DX009 (ip), vehicle: saline
[4] = dose: 200.0 mg/kg/injection, schedule: Q01DX009 (ip), vehicle: saline
[5] = dose: 400.0 mg/kg/injection, schedule: Q04DX003 (ip), vehicle: saline

## COc1cccc2c1C(=O)c1c(O)c3c(c(O)c1C2=O)CC(O)(C(C)=O)CC3OC1CC(N)C(O)C(C)O1 (stereo unspecified)
dose: 4.0 mg/kg/injection, schedule: Q01DX010 (ip), vehicle: saline
  T/C: 135 % of control
dose: 15.0 mg/kg/injection, schedule: Q04DX003 (ip), vehicle: water
  T/C: 129 % of control
dose: 16.0 mg/kg/injection, schedule: Q01DX010 (ip), vehicle: saline
  survivor count: 6 of 6
dose: 30.0 mg/kg/injection, schedule: Q04DX003 (ip), vehicle: water
  T/C: 135 and 135 % of control [4 of 5 alive]
dose: 32.0 mg/kg/injection, schedule: Q01DX001 (ip), vehicle: saline
  survivor count: 2 of 6
dose: 60.0 mg/kg/injection, schedule: Q04DX003 (ip), vehicle: water
  T/C: 147 % of control
dose: 120.0 mg/kg/injection, schedule: Q04DX003 (ip), vehicle: water
  T/C: 128 and 136 % of control
dose: 31.3 micrograms/kg/injection, schedule: Q01DX010 (ip), vehicle: saline
  T/C: 131 % of control
dose: 62.5 micrograms/kg/injection, schedule: Q01DX010 (ip), vehicle: saline
  T/C: 140 % of control

## NNC(=O)c1cnccn1
dose: 20.0 mg/kg/injection, schedule: Q01DX010 (ip), vehicle: water
  survivor count: 0 of 6
dose: 100.0 mg/kg/injection, schedule: Q01DX010 (ip), vehicle: water
  survivor count: 1 of 6
dose: 120.0 mg/kg/injection, schedule: Q01DX010 (ip), vehicle: water
  survivor count: 0 of 6
dose: 140.0 mg/kg/injection, schedule: Q01DX010 (ip), vehicle: water
  survivor count: 0 of 6

## CCOC1OCN(C)CC1(C)C (stereo unspecified)
[1]
  T/C: 140 % of control
dose: 66.0 mg/kg/injection, schedule: Q01DX009 (ip), vehicle: saline
  T/C: 136 % of control
[2]
  T/C: 140 % of control
dose: 150.0 mg/kg/injection, schedule: Q01DX009 (ip), vehicle: saline
  T/C: 126 % of control

## CCC(C)Sc1nc(N)nc2c1ncn2C1OC(CO)C(O)C1O (stereo unspecified)
dose: 400.0 mg/kg/injection, schedule: Q04DX003 (ip), vehicle: saline with Tween-80
  T/C: 125 [4 of 6 alive] and 140 % of control [5 of 6 alive]

## N=c1cc(-c2ccc(Cl)cc2)ss1
[3]
  T/C: 133 % of control
[2]
  survivor count: 5 of 6
[4]
  survivor count: 3 of 6
dose: 300.0 mg/kg/injection, schedule: Q01DX009 (ip), vehicle: saline
  survivor count: 0 of 6
[5]
  survivor count: 2 of 6

## c1ccc2c[n+]3ccccc3cc2c1
dose: 6.25 mg/kg/injection, schedule: Q01DX009 (ip), vehicle: Klucel (hydroxypropylcellulose) (HPC)
  survivor count: 6 of 6
[3]
  survivor count: 5 of 6
dose: 35.0 mg/kg/injection, schedule: Q04DX003 (ip), vehicle: saline
  survivor count: 6 of 6

## O=C(C=C(C(F)(F)F)C(F)(F)F)c1ccc(F)cc1
dose: 25.0 mg/kg/injection, schedule: Q01DX009 (ip), vehicle: other
  T/C: 127 % of control
dose: 37.5 mg/kg/injection, schedule: Q01DX009 (ip), vehicle: other
  T/C: 127 % of control [5 of 6 alive]
dose: 50.0 mg/kg/injection, schedule: Q01DX009 (ip), vehicle: Klucel (hydroxypropylcellulose) (HPC)
  survivor count: 2 of 6

## O=[N+]([O-])c1cccc2c[n+](Cc3ccc(Br)cc3)ccc12
dose: 25.0 mg/kg/injection, schedule: Q01DX009 (ip), vehicle: saline with Tween-80
  T/C: 134 % of control
[1]
  survivor count: 3 of 6

## c1nnc(NCNc2nncs2)s1
dose: 100.0 mg/kg/injection, schedule: Q01DX010 (ip), vehicle: saline
  survivor count: 6 of 7
[4]
  survivor count: 6 of 6
dose: 200.0 mg/kg/injection, schedule: Q04DX003 (ip), vehicle: saline
  survivor count: 6 of 7
[5]
  survivor count: 1 of 7

## [I][Hg][CH2]C1OCCOC1[CH2][Hg][I] (stereo unspecified)
dose: 400.0 mg/kg/injection, schedule: Q01DX009 (ip), vehicle: saline with Tween-80
  survivor count: 1 of 6
